From article doi:10.1101/2021.11.02.466889 come the findings set out here.

The target in this experiment is T1, ScCda2 (yeast two-hybrid fusion) (Saccharomyces cerevisiae) (UniProt Q06703).
T1 sequence: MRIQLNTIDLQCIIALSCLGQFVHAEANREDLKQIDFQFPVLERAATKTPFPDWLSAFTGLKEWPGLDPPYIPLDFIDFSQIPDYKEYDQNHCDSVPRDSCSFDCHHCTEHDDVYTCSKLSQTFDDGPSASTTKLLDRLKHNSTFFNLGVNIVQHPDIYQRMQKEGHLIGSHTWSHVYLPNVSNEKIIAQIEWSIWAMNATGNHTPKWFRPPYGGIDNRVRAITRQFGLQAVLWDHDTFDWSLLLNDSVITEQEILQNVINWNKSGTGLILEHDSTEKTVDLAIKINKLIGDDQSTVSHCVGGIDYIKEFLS
The experiment in a line: two-hybrid.

These are yes or no findings as the source states them, for the method shown. A result given as binding can be weak or reduced; the word gives no strength. Where a sequence is shown, tags or fusion partners need not be part of it.

As to AD-AFP1 (maize), the binding entry was “binds”.
